The list does not hold the whole screen: it is rich in T/C values a quarter to a half above the control, in often repeated tests (any T/C) and in doses without a T/C. Further doses and runs are listed elsewhere. T/C: endpoint of the treated group in % of that of the vehicle group. Some doses have a count of surviving animals in place of a T/C: the source files T/C as zero there, which appears to mark a toxic dose or a test without result, not a measured value. Some doses without a T/C left all or most animals alive at the check, yet need not have been tolerated: the source hardly ever lists a survival T/C far under the control, and the zero likely stands for such cases as well. Counts of survivors are from the toxicity check (mostly the fifth day) where no day follows; animals may have died later. Schedules are NCI's codes, taken here to give the interval after Q, in days (D) or hours (H), and the number of doses after X. Some schedule codes hold Z or #, which are not explained here. Some entries were tested several times; the results are listed from low to high. Where survival is the endpoint, the PubChem record calls one and a half times the control and up active, and a quarter to a half above the control has no call in these data; cut-offs in other NCI protocols can differ. Some T/C values carry the count of animals alive at the toxicity check (mostly the fifth day); where none is given, no animal had died by that day.
System: L1210 leukemia ip in BDF1 mice, survival T/C
Assay: NCI In Vivo Anticancer Drug Screen. Data for tumor model L1210 Leukemia (intraperitoneal) in B6D2F1 (BDF1) mice
Details: T/C endpoint: mean survival time, higher T/C = longer survival
[1] = dose: 100.0 mg/kg/injection, schedule: Q01DX009 (ip), vehicle: Klucel (hydroxypropylcellulose) (HPC)
[2] = dose: 200.0 mg/kg/injection, schedule: Q04DX003 (ip), vehicle: Klucel (hydroxypropylcellulose) (HPC)
[3] = dose: 400.0 mg/kg/injection, schedule: Q04DX003 (ip), vehicle: Klucel (hydroxypropylcellulose) (HPC)
[4] = dose: 100.0 mg/kg/injection, schedule: Q04DX003 (ip), vehicle: Klucel (hydroxypropylcellulose) (HPC)
[5] = dose: 400.0 mg/kg/injection, schedule: Q04DX003 (ip), vehicle: saline
[6] = dose: 400.0 mg/kg/injection, schedule: Q01DX001 (ip), vehicle: saline
[7] = dose: 400.0 mg/kg/injection, schedule: Q04DX003 (ip), vehicle: saline with Tween-80
[8] = dose: 10.0 mg/kg/injection, schedule: Q01DX009 (ip), vehicle: saline
[9] = dose: 200.0 mg/kg/injection, schedule: Q01DX001 (ip), vehicle: saline
[10] = dose: 200.0 mg/kg/injection, schedule: Q01DX009 (ip), vehicle: Klucel (hydroxypropylcellulose) (HPC)
[11] = dose: 400.0 mg/kg/injection, schedule: Q01DX009 (ip), vehicle: Klucel (hydroxypropylcellulose) (HPC)

Structure (SMILES): O=C1C(F)=C(N2CC2)C(=O)C(F)=C1N1CC1
- survivor count (dose: 12.5 mg/kg/injection, schedule: Q04DX003 (ip), vehicle: saline): 3 of 6
- survivor count (dose: 21.0 mg/kg/injection, schedule: Q01DX009 (ip), vehicle: Klucel (hydroxypropylcellulose) (HPC)): 1 of 6
- survivor count (dose: 25.0 mg/kg/injection, schedule: Q04DX003 (ip), vehicle: saline): 1 of 6
- survivor count (dose: 50.0 mg/kg/injection, schedule: Q04DX003 (ip), vehicle: saline): 0 of 6
- survivor count (dose: 100.0 mg/kg/injection, schedule: Q04DX003 (ip), vehicle: saline): 0 of 6

Structure (SMILES): Fc1ccc(P(c2ccc(F)cc2)c2ccc(F)cc2)cc1
- survivor count [1]: 4 of 6
- survivor count [2]: 2 of 6
- survivor count [3]: 0 of 6

Structure (SMILES): ClCc1ccc(CCl)c(Cl)c1
- survivor count [4]: 2 of 6
- survivor count [2]: 3 of 6
- survivor count [3]: 1 of 6

Structure (SMILES): COc1ccc2c(c1)CCC1C2=CC(=O)/C1=C\[O-].COc1ccc2c(c1)CCC1C2=CC(=O)/C1=C\[O-].[Cu+2] (stereo not drawn)
- survivor count (dose: 200.0 mg/kg/injection, schedule: Q01DX009 (ip), vehicle: saline with Tween-80): 0 of 6
- survivor count [5]: 5 of 6

Structure (SMILES): C[N+]1(CCl)CCOCC1
- survivor count (dose: 300.0 mg/kg/injection, schedule: Q01DX001 (ip), vehicle: saline): 0 of 6

Structure (SMILES): CSC(N)=Nc1c(C)cccc1C
- survivor count [6]: 2 of 6

Structure (SMILES): CCCCCCCCCCCCCCCC[n+]1ccc(C(N)=O)cc1
- survivor count (dose: 100.0 mg/kg/injection, schedule: Q04DX003 (ip), vehicle: saline with Tween-80): 3 of 6
- survivor count (dose: 200.0 mg/kg/injection, schedule: Q04DX003 (ip), vehicle: saline with Tween-80): 1 of 6
- survivor count [7]: 0 of 6

Structure (SMILES): CNCC(OC)c1ccc(O)c(O)c1 (stereo not drawn)
- T/C (dose: 400.0 mg/kg/injection, schedule: Q01DX009 (ip), vehicle: saline): 128 % of control

Structure (SMILES): Nc1cc(Nc2ccccc2)nc(=O)[nH]1
- survivor count (dose: 400.0 mg/kg/injection, schedule: Q01DX001 (ip), vehicle: Klucel (hydroxypropylcellulose) (HPC)): 5 of 6

Structure (SMILES): CC(=O)OC1C(=O)C(O)C(C)OC1O[C@@H]1C[C@@]2(C)[C@@H]3CC=C4[C@@H](C[C@H](O)C(=O)C4(C)C)[C@]3(C)C(=O)C[C@]2(C)[C@H]1[C@@](C)(O)C(=O)/C=C/C(C)(C)O (stereo partly drawn)
- survivor count (dose: 5.0 mg/kg/injection, schedule: Q01DX009 (ip), vehicle: saline): 2 of 6
- survivor count [8]: 0 of 6

Structure (SMILES): C#CC(C)(O)CC(C)C (stereo not drawn)
- survivor count [6]: 1 of 4

Structure (SMILES): O=C(Nc1ccc([N+](=O)[O-])cc1)OCC(COc1ccccc1)OC(=O)Nc1ccc([N+](=O)[O-])cc1 (stereo not drawn)
- survivor count (dose: 50.0 mg/kg/injection, schedule: Q01DX001 (ip), vehicle: other): 4 of 4

Structure (SMILES): Cc1ccc([As](=O)(O)O)cc1F
- survivor count (dose: 6.25 mg/kg/injection, schedule: Q01DX009 (ip), vehicle: Klucel (hydroxypropylcellulose) (HPC)): 1 of 3
- survivor count (dose: 12.5 mg/kg/injection, schedule: Q01DX009 (ip), vehicle: Klucel (hydroxypropylcellulose) (HPC)): 1 of 3
- survivor count (dose: 25.0 mg/kg/injection, schedule: Q01DX009 (ip), vehicle: Klucel (hydroxypropylcellulose) (HPC)): 0 of 3

Structure (SMILES): Cn1c(=O)c2c(ncn2CC[n+]2cccc(C(N)=O)c2)n(C)c1=O
- survivor count [5]: 2 of 4

Structure (SMILES): CCOC(=O)C(CC)(OC(C)=O)C(=O)CBr (stereo not drawn)
- survivor count (dose: 150.0 mg/kg/injection, schedule: Q01DX001 (ip), vehicle: acetone): 0 of 6
- survivor count (dose: 300.0 mg/kg/injection, schedule: Q01DX001 (ip), vehicle: acetone): 0 of 6

Structure (SMILES): CCc1ccccc1NC(=O)c1cccc(C(=O)Nc2ccccc2CC)c1
- survivor count [3]: 5 of 6

Structure (SMILES): N=C(N)c1cccc(NC(=O)c2ccc(C(=O)Nc3cccc(C(=N)N)c3)cc2)c1
- survivor count (dose: 120.0 mg/kg/injection, schedule: Q01DX Z (ip), vehicle: saline): 4 of 6
- survivor count (dose: 125.0 mg/kg/injection, schedule: Q01DX Z (ip), vehicle: water): 0 of 6
- survivor count (dose: 250.0 mg/kg/injection, schedule: Q01DX Z (ip), vehicle: water): 3 of 6
- survivor count (dose: 500.0 mg/kg/injection, schedule: Q01DX Z (ip), vehicle: water): 2 of 6

Structure (SMILES): O=c1cc(C[n+]2ccccc2)[nH]c(=O)[nH]1
- survivor count [5]: 0 of 4

Structure (SMILES): CN(C)CC(OCCCc1ccccc1)C(Cl)(Cl)Cl (stereo not drawn)
- survivor count [7]: 1 of 6

Structure (SMILES): Nc1nc(=S)c2nc(CNc3ccc(C(=O)NC(CCC(=O)O)C(=O)O)cc3)nnc2[nH]1 (stereo not drawn)
- survivor count (dose: 400.0 mg/kg/injection, schedule: Q01DX001 (ip), vehicle: saline with Tween-80): 0 of 4

Structure (SMILES): CCCn1c2c(c(=O)n(CC)c1=O)SC(OCC)C(=O)N2 (stereo not drawn)
- survivor count (dose: 262.5 mg/kg/injection, schedule: Q01DX Z (ip), vehicle: other): 6 of 6

Structure (SMILES): Nc1cccc2cc3ccccc3nc12
- survivor count [4]: 0 of 6
- survivor count [2]: 0 of 6
- survivor count [3]: 0 of 6

Structure (SMILES): O=c1oc(-c2cc([N+](=O)[O-])ccc2Cl)nc2ccccc12
- survivor count [7]: 6 of 6

Structure (SMILES): Cc1nc(C)c(Br)s1
- survivor count [7]: 6 of 6

Structure (SMILES): CCOC(=O)CC(C)C(Br)(C(=O)OCC)C(=O)OCC (stereo not drawn)
- survivor count (dose: 400.0 mg/kg/injection, schedule: Q01DX009 (ip), vehicle: water): 1 of 6

Structure (SMILES): CCCCCCCCCCCCCC(C)NCc1ccccc1 (stereo not drawn)
- survivor count [9]: 0 of 4
- survivor count [6]: 0 of 4
- survivor count (dose: 800.0 mg/kg/injection, schedule: Q01DX001 (ip), vehicle: saline): 0 of 4

Structure (SMILES): Clc1c(C(Cl)(Cl)Cl)nc2ccccc2c1Cl
- survivor count [1]: 1 of 3
- survivor count [10]: 0 of 3

Structure (SMILES): CC1(C)C(=O)Nc2ccccc2N1C(=O)CN1CC2CCC(CC2)C1
- survivor count (dose: 50.0 mg/kg/injection, schedule: Q01DX009 (ip), vehicle: saline): 6 of 6

Structure (SMILES): CCOC(=N)CCl
- survivor count (dose: 200.0 mg/kg/injection, schedule: Q04DX003 (ip), vehicle: saline): 1 of 6

Structure (SMILES): [Se]=P(N1CCCCC1)(N1CCCCC1)N1CCCCC1
- survivor count [1]: 4 of 6
- survivor count [10]: 3 of 6
- survivor count [11]: 0 of 6

Structure (SMILES): Nc1nc(=S)c2ncn(C3OC(COC(=O)c4ccccc4)C(OC(=O)c4ccccc4)C3OC(=O)c3ccccc3)c2[nH]1 (stereo not drawn)
- T/C (dose: 1.25 mg/kg/injection, schedule: Q01DX009 (ip), vehicle: saline): 136 % of control
- T/C (dose: 2.5 mg/kg/injection, schedule: Q01DX009 (ip), vehicle: saline): 131 % of control
- T/C [8]: 145 % of control [5 of 6 alive]
- T/C (dose: 20.0 mg/kg/injection, schedule: Q01DX009 (ip), vehicle: saline): 137 % of control
- T/C (dose: 44.0 mg/kg/injection, schedule: Q01DX Z (ip), vehicle: methylcellulose (MC)): 126 % of control
- T/C (dose: 67.0 mg/kg/injection, schedule: Q01DX Z (ip), vehicle: methylcellulose (MC)): 132 % of control
- T/C (dose: 90.0 mg/kg/injection, schedule: Q01DX009 (ip), vehicle: saline): 137 % of control
- T/C (dose: 150.0 mg/kg/injection, schedule: Q01DX Z (ip), vehicle: methylcellulose (MC)): 145 % of control
- T/C (dose: 175.0 mg/kg/injection, schedule: Q01DX001 (ip), vehicle: saline): 138 % of control
- survivor count (dose: 600.0 mg/kg/injection, schedule: Q01DX001 (ip), vehicle: saline): 5 of 6

Structure (SMILES): Nc1nc2c(ncn2C2OC(CO)C(O)C2O)c(=O)[nH]1 (stereo not drawn)
- survivor count [9]: 1 of 6
- survivor count [6]: 0 of 6 and 2 of 4

Structure (SMILES): Oc1ccc2ccccc2c1Sc1c(O)ccc2ccccc12
- survivor count [7]: 0 of 3

Structure (SMILES): CCCCC(=O)N/N=C/c1ccccc1[N+](=O)[O-]
- survivor count (dose: 100.0 mg/kg/injection, schedule: Q01DX001 (ip), vehicle: carboxymethylcellulose (CMC)): 4 of 4

Structure (SMILES): C/C=C/C=C/C(=O)NO
- T/C (dose: 266.0 mg/kg/injection, schedule: Q01DX009 (ip), vehicle: carboxymethylcellulose (CMC)): 134 % of control
- T/C [11]: 134 % of control
- T/C (dose: 400.0 mg/kg/injection, schedule: Q01DX009 (ip), vehicle: carboxymethylcellulose (CMC)): 134 % of control
- T/C (dose: 600.0 mg/kg/injection, schedule: Q01DX009 (ip), vehicle: carboxymethylcellulose (CMC)): 134 % of control

From PubChem BioAssay AID248 (DTP/NCI, 2004)
